Data reported in publication doi:10.1101/2022.01.12.474522.

System: OscWRKY1 (Ocimum sanctum)
Assay: EMSA

Sequence	binding result
ACAAAAATTTCACTATACTTCACTATT (double strand) [W-box 5 (M), TTCACT]	no binding
ACAAAAATTTGACTATACTTGACTATTAGTG / ACACTAATAGTCAAGTATAGTCAAATTTTTG [W-box 5 (TTGACT) probe]	binds
AGATTGACCAGATTTGACCTGTTGACCCT / AGGTCAATAAGGGTCAACAGGTCAAATC [W-box 1 (TTGACC) probe]	binds
AGATTGACGAGATTTGACGTGTTGACGCT (double strand) [W-box 1 (M), TTGACG]	no binding

Construct, isoform or probe ends are uncertain for at least one entry. Negatives hold for the conditions tested.
